# Values quoted from earlier work as cited in US20120277197A1, “TIGECYCLINE FORMULATIONS” (WYETH, priority 2008, published 2012).
# At least one compound was matched to its structure with a doubt left.
# Details: after 23 days; cited from earlier work
smiles,measurement,value
CCC[C@@H]1C[C@@H](C(=O)N[C@@H]([C@H]2O[C@H](SC)[C@H](O)[C@@H](O)[C@H]2O)[C@H](C)Cl)N(C)C1 [clindamycin],loss of label activity after frozen storage,about 13%
